Laboratory results reported in publication PMC9867894.
Results are given in words; binding and its absence hold for the method and conditions named. In cells and extracts the contact can be indirect. Some results given as binding are weak or reduced against the parent protein; the word gives no strength.

Amino acid sequences for entries named in this document (tags omitted).
UniProt P97481: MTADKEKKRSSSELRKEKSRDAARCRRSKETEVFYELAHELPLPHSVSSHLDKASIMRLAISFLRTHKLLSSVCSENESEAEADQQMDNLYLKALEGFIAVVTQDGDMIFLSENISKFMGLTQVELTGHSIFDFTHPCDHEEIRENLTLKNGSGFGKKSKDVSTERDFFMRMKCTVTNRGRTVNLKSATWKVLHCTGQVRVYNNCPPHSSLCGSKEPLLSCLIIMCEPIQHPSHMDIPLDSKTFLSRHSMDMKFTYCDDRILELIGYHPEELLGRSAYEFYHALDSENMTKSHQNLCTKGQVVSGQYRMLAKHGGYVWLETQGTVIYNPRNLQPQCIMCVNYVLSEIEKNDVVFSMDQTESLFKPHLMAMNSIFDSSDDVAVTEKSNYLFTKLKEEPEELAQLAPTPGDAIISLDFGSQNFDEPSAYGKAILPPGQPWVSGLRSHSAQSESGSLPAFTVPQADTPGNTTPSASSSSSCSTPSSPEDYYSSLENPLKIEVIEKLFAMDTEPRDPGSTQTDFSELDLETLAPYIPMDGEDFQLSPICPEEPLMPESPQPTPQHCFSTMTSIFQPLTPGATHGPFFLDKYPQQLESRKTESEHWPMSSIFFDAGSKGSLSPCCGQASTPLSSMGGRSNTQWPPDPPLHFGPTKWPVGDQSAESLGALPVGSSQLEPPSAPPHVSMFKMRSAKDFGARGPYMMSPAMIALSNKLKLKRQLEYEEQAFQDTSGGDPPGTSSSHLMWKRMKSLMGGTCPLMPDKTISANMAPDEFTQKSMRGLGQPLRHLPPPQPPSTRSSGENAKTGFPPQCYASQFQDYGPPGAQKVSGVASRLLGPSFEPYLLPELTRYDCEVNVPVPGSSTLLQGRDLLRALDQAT
UniProt Q64104: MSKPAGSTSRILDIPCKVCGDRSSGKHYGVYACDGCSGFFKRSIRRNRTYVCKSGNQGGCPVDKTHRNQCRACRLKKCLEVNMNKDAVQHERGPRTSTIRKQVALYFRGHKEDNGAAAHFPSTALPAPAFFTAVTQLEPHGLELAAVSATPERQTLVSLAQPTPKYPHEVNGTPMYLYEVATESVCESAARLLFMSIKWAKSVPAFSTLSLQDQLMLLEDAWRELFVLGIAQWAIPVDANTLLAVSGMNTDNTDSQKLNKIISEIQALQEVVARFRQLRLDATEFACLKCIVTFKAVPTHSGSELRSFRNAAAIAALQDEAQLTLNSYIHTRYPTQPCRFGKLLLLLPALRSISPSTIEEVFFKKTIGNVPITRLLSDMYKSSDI

Tests used:
[1] = target: hypoxia inducible factor-2α (HIF2α) (mouse (endogenous in retina)) (UniProt P97481); assay: co-IP; retinal lysates of P4 WT mice (20 mM Tris HCl pH 8, 150 mM NaCl, 1% Triton X-100, 2 mM EDTA) incubated with anti-TLX, anti-HIF2α or nonspecific immunoglobulins (5 µg/ml, 4°C, overnight), Protein G magnetic beads, Western blotting
[2] = target: Tailless (TLX, an orphan nuclear receptor) (mouse (endogenous in retina)) (UniProt Q64104); assay: as above

binding [1]	binding [2]	Substance
binds	–	Tailless (TLX, an orphan nuclear receptor) (from UniProt Q64104 1-385)
–	binds	hypoxia inducible factor-2α (HIF2α) (from UniProt P97481 1-874)
